In publication PMC8274477:
These are yes or no findings as the source states them, for the method shown. Some entries that bind do so weakly or less than the wild type.

Chains of the proteins cited; added tags and fusions are not shown.
UniProt O95922: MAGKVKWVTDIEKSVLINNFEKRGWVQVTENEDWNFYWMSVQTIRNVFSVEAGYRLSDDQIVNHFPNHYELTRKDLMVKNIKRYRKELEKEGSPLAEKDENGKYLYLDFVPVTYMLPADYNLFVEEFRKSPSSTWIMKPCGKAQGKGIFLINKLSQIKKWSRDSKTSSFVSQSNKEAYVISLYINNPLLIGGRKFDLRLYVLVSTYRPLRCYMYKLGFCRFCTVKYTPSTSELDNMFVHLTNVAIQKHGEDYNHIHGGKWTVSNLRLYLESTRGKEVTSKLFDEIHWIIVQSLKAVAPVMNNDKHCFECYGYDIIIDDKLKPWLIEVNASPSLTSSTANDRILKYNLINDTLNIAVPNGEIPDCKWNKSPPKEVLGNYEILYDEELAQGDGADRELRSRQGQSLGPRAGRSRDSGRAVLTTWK

How the values were obtained:
Experiment in all cases: peptide or protein array; HuProt human proteome microarray; 5 ug/5 ml biotin-labelled LUBAC or OTULIN in solution, 1 h at room temperature; Cy5-streptavidin, scanned at 635 nm; BSA as negative control; hits: Z-score >= 3 and I_(Mean_Ratio) >= 1.4; both purified
FSCB (human) = biological target: T1, FSCB (human) (UniProt Q5H9T9)
T1 sequence: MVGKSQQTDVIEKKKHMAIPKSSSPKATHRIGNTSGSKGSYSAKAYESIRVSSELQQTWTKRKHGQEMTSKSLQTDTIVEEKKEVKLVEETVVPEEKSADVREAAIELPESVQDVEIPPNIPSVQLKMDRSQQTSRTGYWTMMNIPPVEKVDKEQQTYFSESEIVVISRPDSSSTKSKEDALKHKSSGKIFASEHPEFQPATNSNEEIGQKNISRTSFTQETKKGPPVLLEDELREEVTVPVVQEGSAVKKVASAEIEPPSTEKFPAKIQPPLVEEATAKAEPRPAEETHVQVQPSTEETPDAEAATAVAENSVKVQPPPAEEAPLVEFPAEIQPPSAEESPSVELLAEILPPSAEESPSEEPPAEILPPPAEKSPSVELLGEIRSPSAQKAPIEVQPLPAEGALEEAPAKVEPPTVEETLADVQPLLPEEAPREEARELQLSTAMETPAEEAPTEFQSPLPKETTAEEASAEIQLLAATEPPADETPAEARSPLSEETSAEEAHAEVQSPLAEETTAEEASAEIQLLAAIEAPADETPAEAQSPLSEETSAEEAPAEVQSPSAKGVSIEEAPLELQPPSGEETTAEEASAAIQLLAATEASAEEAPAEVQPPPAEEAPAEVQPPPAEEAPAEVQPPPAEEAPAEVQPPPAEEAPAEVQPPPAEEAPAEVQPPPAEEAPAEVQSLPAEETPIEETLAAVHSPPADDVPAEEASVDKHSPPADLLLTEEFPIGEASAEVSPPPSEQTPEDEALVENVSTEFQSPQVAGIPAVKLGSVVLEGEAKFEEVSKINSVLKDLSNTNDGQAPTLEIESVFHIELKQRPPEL

TTLL1 (human) = TTLL1 (human) (UniProt O95922)
BCAR3 (human) = biological target: T2, BCAR3 (human) (UniProt O75815)
T2 sequence: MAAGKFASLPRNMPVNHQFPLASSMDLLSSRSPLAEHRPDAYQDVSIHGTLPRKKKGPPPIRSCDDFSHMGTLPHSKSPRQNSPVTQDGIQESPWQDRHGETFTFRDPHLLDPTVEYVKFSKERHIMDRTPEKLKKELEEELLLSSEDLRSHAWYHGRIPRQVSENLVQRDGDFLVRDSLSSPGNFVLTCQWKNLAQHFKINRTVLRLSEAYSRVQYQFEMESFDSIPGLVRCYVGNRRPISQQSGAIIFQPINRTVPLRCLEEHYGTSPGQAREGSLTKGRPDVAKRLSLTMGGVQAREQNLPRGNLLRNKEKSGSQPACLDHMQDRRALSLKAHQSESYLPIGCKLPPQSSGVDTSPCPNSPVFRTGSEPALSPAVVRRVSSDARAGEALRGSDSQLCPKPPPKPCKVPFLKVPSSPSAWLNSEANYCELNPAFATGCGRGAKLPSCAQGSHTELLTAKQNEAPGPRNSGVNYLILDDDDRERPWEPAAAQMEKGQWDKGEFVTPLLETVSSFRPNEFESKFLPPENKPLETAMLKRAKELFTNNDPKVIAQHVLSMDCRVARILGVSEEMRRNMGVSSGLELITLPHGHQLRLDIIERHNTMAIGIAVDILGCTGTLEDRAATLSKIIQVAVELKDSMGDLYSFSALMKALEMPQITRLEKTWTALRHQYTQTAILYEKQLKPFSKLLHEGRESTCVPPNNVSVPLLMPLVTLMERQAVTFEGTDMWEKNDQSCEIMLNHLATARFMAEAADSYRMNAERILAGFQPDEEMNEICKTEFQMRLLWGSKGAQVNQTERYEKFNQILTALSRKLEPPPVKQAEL

C17orf82 (human) = biological target: T3, C17orf82 (human) (UniProt Q86X59)
T3 sequence: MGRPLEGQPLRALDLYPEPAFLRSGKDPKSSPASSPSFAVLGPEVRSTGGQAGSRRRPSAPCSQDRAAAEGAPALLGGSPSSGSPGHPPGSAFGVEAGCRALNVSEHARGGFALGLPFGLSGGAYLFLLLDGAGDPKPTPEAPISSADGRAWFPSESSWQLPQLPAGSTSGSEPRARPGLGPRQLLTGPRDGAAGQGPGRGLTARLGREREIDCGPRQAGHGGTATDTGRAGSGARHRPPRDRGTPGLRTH

Measured: binding

linear ubiquitin chain assembly complex (LUBAC), purified as HIS-tagged HOIP with the subunit HOIL-1, biotin-labelled (from UniProt Q96EP0 1-1072; Q9BYM8 1-510)
binds: all assays above
